Assay results as given in PubChem BioAssay AID493014 (National Center for Advancing Translational Sciences (NCATS), 2011).
This is one part of the list. The main result of the screen is listed elsewhere. These columns were measured beside it and carry no call. Compounds called inactive in the main read-out are mostly missing here. The note in brackets gives the kind of curve behind each potency; many fits are weak.

Experiment: qHTS Assay to Find Inhibitors of Chronic Active B-Cell Receptor Signaling
Conditions: ABC-DLBCL IkBa-CBG/CBR reporter, luminescence ratio (green luciferase fused to IkBa over red control in TMD8 lymphoma cells), 4 h
Outline: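 Cell line TMD8 (human ABC DLBCL), stably expressing tet-inducible CBG68-IkBa fusion and CBR; IMDM/0.5% FBS; cpd up to 46 uM; dox induction, 4 h, 37C/5% CO2; dual luminescence; green/red ratio; MG132 control.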

[1] = measured here: CBR red luminescence, cell number
[2] = measured here: IkBa-CBG green luminescence

Structure (SMILES)	AC50 [1]	AC50 [2]
CC(=O)Nc1ccc2oc(-c3ccccc3)nc2c1	25.1 µM [falling, single point]	–
CN(CC(=O)NCc1ccco1)S(=O)(=O)c1ccc2c(c1)n(C)c(=O)c(=O)n2C	4.61 µM [falling, full curve, poor fit]	–
CC1CCN(CC(=O)Nc2ccc(S(=O)(=O)NC3CC3)cc2)CC1	6.31 µM [falling, single point]	–
Cc1cc(N2C(=O)C=CC2=O)c([N+](=O)[O-])cc1C	10.3 µM [falling, partial curve]	18.4 µM [rising, partial curve, poor fit]
O=C(Nc1cc(Cl)c(O)c(Cl)c1)C1CCCO1 (configuration not stated)	6.51 µM [falling, partial curve, poor fit]	–
CC(C)C(NC(=O)c1ccco1)C(=O)NCC(c1ccco1)N1CCCCC1 (configuration not stated)	0.517 µM [rising, partial curve, poor fit]	–
CCCC1CCc2c(c3ccccc3[nH]c2=O)O1 (configuration not stated)	4.61 µM [rising, single point]	–
C/C(=N\Nc1ccc(C(=O)O)cc1)c1ccc(-n2ccnc2)cc1	0.501 µM [falling, full curve]	–
CCOc1cccc(/C=C/c2ccc3ccccc3n2)c1OC(C)=O	22.4 µM [falling, single point]	–
CCOC(=O)c1ccc(NC(=S)NCCC2=CCCCC2)cc1	5.17 µM [falling, partial curve]	–
CCCNC(=S)Nc1cc2oc3ccccc3c2cc1OC	0.708 µM [rising, full curve]	–
COc1cc(NC(=O)COC(=O)C2CC2)c(C)cc1[N+](=O)[O-]	3.26 µM [rising, single point]	–
COCCN(CCOc1cc(C)cc(C)c1)Cc1ccc(Cl)cc1	0.1 µM [rising, full curve, poor fit]	–
Cc1ccc(S(=O)(=O)NCCC(=O)Nc2nccs2)cc1	14.1 µM [falling, partial curve]	–
Cc1c(C(=O)N2CCN(c3ccccn3)CC2)oc2c(F)cccc12	35.5 µM [falling, single point]	–
COc1cc(C(=O)OCC(=O)N2CC(C)OC(C)C2)cc(OC)c1OC (configuration not stated)	5.62 µM [rising, single point]	–
COc1cc(SC)ccc1C(=O)Nc1cccc(S(=O)(=O)NC2=NCCC2)c1	16.4 µM [falling, partial curve, poor fit]	–
Cc1ccccc1OCC(=O)OCC(=O)c1ccc(-c2ccccc2)cc1	4.61 µM [rising, full curve]	–
Clc1cccc(N/N=C(\Cc2nc3ccccc3[nH]2)c2ccccc2)c1	16.4 µM [falling, partial curve]	–
COc1ccc(C2=C(c3ccc(OC)c(OC)c3)CN3CCCCC3C2)cc1 (configuration not stated)	–	16.4 µM [falling, partial curve, poor fit]

Structure (SMILES)	AC50 [1]	AC50 [2]
CCCCn1nc(C(=O)Nc2nc3c(s2)CCCC3)c2ccccc2c1=O	1.84 µM [rising, single point]	–
CC1=C(C)CS(=O)N(S(=O)(=O)c2ccccc2)C1 (configuration not stated)	18.4 µM [rising, partial curve]	29.1 µM [falling, single point]
CCOC(=O)c1ccccc1NC(=O)CSc1nnnn1C1CCCCC1	11.2 µM [falling, partial curve]	–
CSc1nc(Sc2ccccc2Cl)c2ccccc2n1	18.4 µM [rising, single point]	29.1 µM [falling, single point]
CC(C)CCNC(=O)CCc1nnc2n(CCCOC(C)C)c(=O)c3ccccc3n12	3.16 µM [rising, full curve, poor fit]	–
O=C1C=C(c2ccc(Cl)c(C(F)(F)F)c2)C[C@@H](c2ccc(F)cc2)C1	20.6 µM [rising, single point]	–
O=C(CCCOc1ccc(Cl)cc1)Nc1cccc(C(=O)O)c1	17.8 µM [falling, partial curve, poor fit]	–
CC(=O)Nc1ccc(N(CC(O)Cn2c3ccccc3c3ccccc32)S(=O)(=O)c2ccc(C)cc2)cc1 (configuration not stated)	13 µM [falling, partial curve]	–
CCC(C)(C)NC(=O)CN(C(=O)CNS(=O)(=O)c1ccccc1)c1ccc2c(c1)OCCO2	0.112 µM [falling, full curve, poor fit]	–
CN(C)C(=O)c1ccc(NC(=O)COC(=O)c2cc(S(=O)(=O)N(C)C)ccc2N2CCCC2)cc1	2.91 µM [rising, full curve, poor fit]	–
Cc1[nH]n(-c2ccc([N+](=O)[O-])cc2)c(=O)c1C=NCCN1CCN(C(=O)c2ccc(F)cc2)CC1	6.51 µM [falling, single point]	–
O=C(CSC1CC(=O)N(CC(c2ccccc2)c2ccccc2)C1=O)Nc1ccc(Cl)cc1 (configuration not stated)	8.91 µM [falling, partial curve]	–
CCOC(=O)CNC(=O)c1sc2ncnc(N3CCc4ccccc4C3)c2c1C	11.6 µM [falling, partial curve, poor fit]	–
CC(C)N1CCC(N2CCN(C/C=C/c3ccccc3)CC2CCO)CC1 (configuration not stated)	5.62 µM [falling, single point]	–
CCOC(=O)N1CCN(c2cc(=O)n(-c3ccc(OCC)cc3)c(=O)[nH]2)CC1	6.51 µM [rising, partial curve, poor fit]	–
CC(C)C(=O)Nc1ccc(NC(=O)c2ccccc2Cl)nc1	5.8 µM [falling, partial curve, poor fit]	–
CCN1CCN(CCCNC(=O)c2ccc(/C=C3/Sc4ccccc4N(Cc4ccccc4F)C3=O)cc2)CC1	35.5 µM [falling, partial curve, poor fit]	–
Cc1ccc(NC(=S)NNC(=O)c2nn(C)c(C)c2Cl)cc1	11.2 µM [falling, single point]	–
Cc1ccc(N(C(=O)c2csnn2)C(C(=O)NC2CCCCC2)c2ccncc2)cc1 (configuration not stated)	35.5 µM [rising, partial curve, poor fit]	–

Single entries from the entries so far:
AC50 [1], CCOC(=O)c1ccccc1NC(=O)CSc1nnnn1C1CCCCC1 is entered as 11.2 µM [falling, partial curve]
AC50 [1], CCCCn1nc(C(=O)Nc2nc3c(s2)CCCC3)c2ccccc2c1=O is entered as 1.84 µM [rising, single point]
